The results in this text go back to publication PMC3769308.

Protein sequences, listed by entry. Tags and fused reporters are not part of them.
UniProt A0QZ54: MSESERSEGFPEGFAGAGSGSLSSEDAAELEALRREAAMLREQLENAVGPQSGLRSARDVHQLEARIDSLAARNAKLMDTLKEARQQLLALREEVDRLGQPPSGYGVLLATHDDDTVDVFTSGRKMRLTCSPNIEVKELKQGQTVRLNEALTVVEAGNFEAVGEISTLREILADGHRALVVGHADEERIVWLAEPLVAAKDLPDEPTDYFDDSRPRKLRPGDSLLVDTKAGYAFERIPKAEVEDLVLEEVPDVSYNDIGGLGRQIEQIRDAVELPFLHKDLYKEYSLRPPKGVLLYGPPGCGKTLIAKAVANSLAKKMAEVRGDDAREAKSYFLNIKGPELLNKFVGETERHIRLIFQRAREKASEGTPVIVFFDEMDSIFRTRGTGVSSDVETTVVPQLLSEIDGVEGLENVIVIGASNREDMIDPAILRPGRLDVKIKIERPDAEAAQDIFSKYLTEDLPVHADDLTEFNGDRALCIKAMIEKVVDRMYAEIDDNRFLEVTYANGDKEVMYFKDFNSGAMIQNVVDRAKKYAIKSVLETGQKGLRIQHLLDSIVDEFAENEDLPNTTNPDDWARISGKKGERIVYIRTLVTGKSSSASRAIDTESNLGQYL
UniProt P9WHN5: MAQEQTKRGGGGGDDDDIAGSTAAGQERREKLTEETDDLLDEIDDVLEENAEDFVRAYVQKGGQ

Experiment [1] deals with Msm Mpa/Mtb wild type proteasome CP complex (Mycobacterium smegmatis | Mycobacterium tuberculosis) (UniProt A0QZ54). Nature of the experiment: NMR titration; […]) for 16 h; […].
The target of experiment [2] is Mycobacterium smegmatis Mpa (mycobacterial proteasomal ATPase) (Mycobacterium smegmatis) (UniProt A0QZ54). Nature of the experiment: NMR titration; […]) for 16 h; […].
Experiment [3] deals with Msm Mpa/Mtb wild type proteasome CP complex (Mycobacterium smegmatis | Mycobacterium tuberculosis) (UniProt A0QZ54). Nature of the experiment: NMR titration.

These are yes or no findings as the source states them, for the method shown. Some results given as binding are weak or reduced against the parent protein; the word gives no strength.

For “Pup-GGQ (prokaryotic ubiquitin-like protein, precursor form with C-terminal glutamine) (from UniProt P9WHN5 1-64)”, the values for the binding entry in experiment [1], in experiment [2] and in experiment [3] were “binds”, “binds weakly” and “binds”, respectively.
